# Results published in the supplement of paper PMC10849652.
# Chains of the proteins cited; added tags and fusions are not shown. Lines headed by an entry give the natural chain unless they say otherwise; changes in a name come on top.
# UniProt Q969S3: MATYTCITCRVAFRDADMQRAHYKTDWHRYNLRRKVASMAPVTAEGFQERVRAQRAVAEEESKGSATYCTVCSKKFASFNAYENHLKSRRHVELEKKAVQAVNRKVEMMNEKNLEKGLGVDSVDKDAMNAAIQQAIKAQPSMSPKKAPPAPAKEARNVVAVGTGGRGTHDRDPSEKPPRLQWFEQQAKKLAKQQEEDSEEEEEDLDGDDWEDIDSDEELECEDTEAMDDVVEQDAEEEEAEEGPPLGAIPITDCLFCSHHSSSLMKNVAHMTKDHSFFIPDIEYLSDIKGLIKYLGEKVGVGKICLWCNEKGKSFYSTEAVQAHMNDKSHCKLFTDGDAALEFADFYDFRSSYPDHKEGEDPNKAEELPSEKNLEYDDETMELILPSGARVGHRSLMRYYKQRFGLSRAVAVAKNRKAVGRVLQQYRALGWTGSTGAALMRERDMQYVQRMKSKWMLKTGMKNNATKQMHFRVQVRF
# UniProt Q9ULU4: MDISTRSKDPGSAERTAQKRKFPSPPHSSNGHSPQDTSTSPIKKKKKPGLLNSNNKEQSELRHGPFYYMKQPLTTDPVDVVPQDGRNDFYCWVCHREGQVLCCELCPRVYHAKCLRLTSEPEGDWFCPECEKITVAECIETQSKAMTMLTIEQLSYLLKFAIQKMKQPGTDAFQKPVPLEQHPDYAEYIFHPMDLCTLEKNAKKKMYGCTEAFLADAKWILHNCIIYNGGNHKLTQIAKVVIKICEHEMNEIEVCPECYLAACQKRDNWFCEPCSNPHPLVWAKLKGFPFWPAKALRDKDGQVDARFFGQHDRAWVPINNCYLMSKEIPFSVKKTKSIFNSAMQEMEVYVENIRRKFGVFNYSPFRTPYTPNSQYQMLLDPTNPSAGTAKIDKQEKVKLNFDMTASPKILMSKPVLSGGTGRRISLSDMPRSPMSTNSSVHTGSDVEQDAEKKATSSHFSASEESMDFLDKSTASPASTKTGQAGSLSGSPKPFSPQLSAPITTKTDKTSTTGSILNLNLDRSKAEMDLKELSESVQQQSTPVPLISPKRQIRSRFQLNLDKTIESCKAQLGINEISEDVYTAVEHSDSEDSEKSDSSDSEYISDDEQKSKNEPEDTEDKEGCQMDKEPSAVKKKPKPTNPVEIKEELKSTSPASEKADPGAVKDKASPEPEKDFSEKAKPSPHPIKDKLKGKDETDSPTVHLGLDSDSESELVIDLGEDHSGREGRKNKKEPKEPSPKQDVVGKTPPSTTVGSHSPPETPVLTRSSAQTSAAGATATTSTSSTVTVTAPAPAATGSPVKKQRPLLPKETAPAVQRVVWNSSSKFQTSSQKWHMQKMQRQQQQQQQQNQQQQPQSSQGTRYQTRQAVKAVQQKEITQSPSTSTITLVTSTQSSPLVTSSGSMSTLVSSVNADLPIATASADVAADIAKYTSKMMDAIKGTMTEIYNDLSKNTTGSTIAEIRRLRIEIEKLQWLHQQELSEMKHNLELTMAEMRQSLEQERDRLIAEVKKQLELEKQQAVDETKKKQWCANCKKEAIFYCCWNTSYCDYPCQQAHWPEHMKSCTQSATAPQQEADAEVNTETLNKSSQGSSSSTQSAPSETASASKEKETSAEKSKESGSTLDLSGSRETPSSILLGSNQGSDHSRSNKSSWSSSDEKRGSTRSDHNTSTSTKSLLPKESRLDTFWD
# UniProt O60232: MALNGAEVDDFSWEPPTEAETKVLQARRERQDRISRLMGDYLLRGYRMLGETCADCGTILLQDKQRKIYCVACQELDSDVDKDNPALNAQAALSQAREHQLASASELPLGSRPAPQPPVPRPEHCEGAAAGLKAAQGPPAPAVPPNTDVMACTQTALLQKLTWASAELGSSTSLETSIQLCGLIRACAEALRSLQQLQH
# UniProt P52739: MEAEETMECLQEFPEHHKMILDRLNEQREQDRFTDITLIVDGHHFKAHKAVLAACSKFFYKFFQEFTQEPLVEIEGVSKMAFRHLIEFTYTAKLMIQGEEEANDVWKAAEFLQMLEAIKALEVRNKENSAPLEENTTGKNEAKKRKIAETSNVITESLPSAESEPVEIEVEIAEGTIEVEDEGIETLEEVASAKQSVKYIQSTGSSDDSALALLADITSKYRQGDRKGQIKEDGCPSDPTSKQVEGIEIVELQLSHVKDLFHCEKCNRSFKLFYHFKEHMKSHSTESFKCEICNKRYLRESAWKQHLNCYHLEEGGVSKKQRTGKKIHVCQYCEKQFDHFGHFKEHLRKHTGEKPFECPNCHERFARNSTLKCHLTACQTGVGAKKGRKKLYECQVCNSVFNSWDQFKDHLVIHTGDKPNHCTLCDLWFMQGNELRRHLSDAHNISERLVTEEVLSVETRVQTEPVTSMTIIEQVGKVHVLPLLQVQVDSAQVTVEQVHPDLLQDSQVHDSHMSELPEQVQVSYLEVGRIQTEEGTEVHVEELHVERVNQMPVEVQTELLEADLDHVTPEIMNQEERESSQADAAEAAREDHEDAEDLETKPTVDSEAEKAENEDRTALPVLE
# UniProt Q8NB15: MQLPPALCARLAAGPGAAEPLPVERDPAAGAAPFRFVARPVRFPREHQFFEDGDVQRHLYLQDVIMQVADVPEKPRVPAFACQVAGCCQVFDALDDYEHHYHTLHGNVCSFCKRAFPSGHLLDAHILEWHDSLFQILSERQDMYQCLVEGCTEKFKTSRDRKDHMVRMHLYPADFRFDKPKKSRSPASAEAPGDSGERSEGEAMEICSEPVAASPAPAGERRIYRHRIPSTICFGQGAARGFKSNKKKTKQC
# UniProt O43670: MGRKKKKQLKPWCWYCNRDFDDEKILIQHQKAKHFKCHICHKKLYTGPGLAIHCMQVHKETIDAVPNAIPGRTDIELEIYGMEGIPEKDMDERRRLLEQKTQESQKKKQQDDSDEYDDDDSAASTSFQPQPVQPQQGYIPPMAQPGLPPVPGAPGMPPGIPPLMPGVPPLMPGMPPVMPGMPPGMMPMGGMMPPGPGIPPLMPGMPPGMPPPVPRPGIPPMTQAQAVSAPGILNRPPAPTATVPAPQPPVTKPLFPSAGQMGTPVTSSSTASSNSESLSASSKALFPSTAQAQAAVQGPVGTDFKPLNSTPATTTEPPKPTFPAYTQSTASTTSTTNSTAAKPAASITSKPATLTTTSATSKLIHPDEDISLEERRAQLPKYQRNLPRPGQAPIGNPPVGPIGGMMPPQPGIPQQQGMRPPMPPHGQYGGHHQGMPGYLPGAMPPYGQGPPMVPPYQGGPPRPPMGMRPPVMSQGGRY
# UniProt Q9C0G0: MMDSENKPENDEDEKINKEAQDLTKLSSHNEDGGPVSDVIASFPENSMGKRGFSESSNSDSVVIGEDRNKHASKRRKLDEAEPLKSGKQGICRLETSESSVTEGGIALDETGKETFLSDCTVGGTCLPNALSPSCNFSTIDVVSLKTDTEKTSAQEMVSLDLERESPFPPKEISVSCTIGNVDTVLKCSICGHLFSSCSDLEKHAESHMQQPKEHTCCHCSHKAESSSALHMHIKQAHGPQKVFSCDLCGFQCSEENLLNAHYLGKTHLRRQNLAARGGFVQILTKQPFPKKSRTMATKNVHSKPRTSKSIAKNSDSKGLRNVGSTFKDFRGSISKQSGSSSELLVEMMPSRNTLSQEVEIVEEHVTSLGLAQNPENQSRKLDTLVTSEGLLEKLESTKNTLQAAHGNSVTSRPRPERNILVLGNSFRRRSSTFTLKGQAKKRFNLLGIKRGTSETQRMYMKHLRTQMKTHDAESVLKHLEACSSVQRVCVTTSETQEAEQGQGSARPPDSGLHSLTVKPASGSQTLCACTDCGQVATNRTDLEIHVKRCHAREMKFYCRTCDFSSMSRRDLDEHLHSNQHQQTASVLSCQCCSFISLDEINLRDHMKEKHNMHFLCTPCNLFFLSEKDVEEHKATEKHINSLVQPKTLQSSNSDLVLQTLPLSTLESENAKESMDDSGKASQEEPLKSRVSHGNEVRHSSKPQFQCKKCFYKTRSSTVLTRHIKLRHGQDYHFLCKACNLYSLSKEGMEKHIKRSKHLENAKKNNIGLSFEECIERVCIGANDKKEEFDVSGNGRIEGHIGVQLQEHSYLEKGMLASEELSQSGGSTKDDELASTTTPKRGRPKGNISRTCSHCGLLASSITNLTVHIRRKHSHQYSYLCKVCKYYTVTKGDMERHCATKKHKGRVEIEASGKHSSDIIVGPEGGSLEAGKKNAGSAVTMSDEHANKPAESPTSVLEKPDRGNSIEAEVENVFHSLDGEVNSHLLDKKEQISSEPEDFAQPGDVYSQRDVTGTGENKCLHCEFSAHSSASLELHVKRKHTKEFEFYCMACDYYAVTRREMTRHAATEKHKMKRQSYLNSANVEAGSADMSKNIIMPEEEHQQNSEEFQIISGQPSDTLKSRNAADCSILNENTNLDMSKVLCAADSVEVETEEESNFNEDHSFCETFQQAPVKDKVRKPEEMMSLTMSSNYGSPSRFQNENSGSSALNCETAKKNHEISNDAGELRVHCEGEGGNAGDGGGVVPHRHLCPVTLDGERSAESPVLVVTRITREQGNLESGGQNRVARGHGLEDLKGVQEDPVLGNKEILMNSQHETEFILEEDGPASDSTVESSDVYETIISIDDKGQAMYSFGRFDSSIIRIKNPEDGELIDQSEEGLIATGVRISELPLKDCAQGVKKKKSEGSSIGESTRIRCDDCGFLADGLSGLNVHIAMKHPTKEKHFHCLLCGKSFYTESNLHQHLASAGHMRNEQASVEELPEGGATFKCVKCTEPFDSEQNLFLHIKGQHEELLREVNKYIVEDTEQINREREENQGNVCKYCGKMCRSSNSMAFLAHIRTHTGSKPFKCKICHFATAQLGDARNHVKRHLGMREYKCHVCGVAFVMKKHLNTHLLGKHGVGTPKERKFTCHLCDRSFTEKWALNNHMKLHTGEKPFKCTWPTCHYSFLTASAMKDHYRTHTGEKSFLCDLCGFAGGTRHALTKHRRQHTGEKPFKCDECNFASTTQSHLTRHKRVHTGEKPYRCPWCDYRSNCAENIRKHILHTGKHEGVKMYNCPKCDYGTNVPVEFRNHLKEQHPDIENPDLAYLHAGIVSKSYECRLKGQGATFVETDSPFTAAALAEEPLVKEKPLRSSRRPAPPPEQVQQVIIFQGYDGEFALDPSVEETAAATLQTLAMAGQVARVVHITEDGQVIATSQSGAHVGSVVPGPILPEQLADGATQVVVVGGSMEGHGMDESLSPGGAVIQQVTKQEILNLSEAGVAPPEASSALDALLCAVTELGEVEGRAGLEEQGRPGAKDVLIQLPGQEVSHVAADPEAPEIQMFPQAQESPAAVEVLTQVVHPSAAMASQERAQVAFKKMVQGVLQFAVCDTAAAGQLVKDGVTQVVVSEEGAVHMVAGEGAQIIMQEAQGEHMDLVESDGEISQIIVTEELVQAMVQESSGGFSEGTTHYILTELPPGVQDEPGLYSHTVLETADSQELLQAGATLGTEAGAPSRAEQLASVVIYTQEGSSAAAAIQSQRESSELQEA
# UniProt Q9UKY1: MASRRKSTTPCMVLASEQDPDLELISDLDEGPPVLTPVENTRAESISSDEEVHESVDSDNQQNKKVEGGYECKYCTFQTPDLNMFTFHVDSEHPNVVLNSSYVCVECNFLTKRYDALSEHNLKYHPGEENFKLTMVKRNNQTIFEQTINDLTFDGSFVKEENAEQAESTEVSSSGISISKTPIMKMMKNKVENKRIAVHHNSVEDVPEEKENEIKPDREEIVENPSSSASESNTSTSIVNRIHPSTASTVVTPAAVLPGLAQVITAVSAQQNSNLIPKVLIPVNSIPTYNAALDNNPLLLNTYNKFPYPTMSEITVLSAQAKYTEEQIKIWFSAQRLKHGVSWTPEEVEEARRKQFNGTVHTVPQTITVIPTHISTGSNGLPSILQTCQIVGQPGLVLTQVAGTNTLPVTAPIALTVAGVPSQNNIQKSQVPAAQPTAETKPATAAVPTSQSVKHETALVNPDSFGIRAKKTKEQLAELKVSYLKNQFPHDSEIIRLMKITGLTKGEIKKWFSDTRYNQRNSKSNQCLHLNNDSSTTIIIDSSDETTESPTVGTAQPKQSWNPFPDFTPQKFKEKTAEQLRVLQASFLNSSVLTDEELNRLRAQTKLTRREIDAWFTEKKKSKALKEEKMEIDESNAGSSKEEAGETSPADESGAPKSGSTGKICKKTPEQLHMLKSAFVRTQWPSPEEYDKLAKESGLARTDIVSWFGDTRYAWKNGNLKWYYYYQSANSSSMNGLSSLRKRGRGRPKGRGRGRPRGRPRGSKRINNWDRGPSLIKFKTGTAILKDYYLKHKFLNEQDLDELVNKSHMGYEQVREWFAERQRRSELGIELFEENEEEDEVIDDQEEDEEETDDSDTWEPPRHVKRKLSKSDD
# UniProt Q15649: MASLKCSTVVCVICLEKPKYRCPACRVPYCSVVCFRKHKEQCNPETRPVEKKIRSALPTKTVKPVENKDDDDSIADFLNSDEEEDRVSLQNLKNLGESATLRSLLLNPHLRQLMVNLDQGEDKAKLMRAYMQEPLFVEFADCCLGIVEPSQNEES
# This is one part of the list.
# Key:
# Experiment in all cases: log2 fold change, soluble protein after heating vs DMSO (PISA); higher = thermal stabilisation; K562 lysate, 10 uM; active = over 0.2 and 3.5 SD of the protein, either way, in both replicates (recomputed)
# lapatinib = compound: CS(=O)(=O)CCNCc1ccc(-c2ccc3ncnc(Nc4ccc(OCc5cccc(F)c5)c(Cl)c4)c3c2)o1 [lapatinib]
# Method in brief: (§1)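 A 30 min treatment with 10 μM compound was applied to crude K562 extract at 1 mg/mL protein in PBS pH 7.4 with 1 mM MgCl2. Heating for 3 min spanned 48°C-58°C, after which aliquots were pooled, adjusted to 0.5% NP-40 at 4°C and spun at 21,000xg for 90 min. TMTpro 16plex LC-MS/MS of the supernatant, with channel sums equalised, gave values recorded as log-two fold change in thermal stability against solvent controls, from duplicates.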
# pictilisib = compound: CS(=O)(=O)N1CCN(Cc2cc3nc(-c4cccc5[nH]ncc45)nc(N4CCOCC4)c3s2)CC1 [pictilisib]
# Method in brief: as §1
# crizotinib = compound: C[C@@H](Oc1cc(-c2cnn(C3CCNCC3)c2)cnc1N)c1c(Cl)ccc(F)c1Cl [crizotinib]
# Method in brief: as §1
# [1] = compound: C[C@H](C1=CC=C(C=C1)C(=O)NC2=C3C=CNC3=NC=C2)N
# Method in brief: as §1
# duvelisib = compound: C[C@H](Nc1ncnc2nc[nH]c12)c1cc2cccc(Cl)c2c(=O)n1-c1ccccc1 [duvelisib]
# Method in brief: as §1
# gandotinib = compound: Cc1cc(Nc2cc(CN3CCOCC3)c3nc(C)c(Cc4ccc(Cl)cc4F)n3n2)n[nH]1 [gandotinib]
# Method in brief: as §1
# tozasertib = compound: Cc1cc(Nc2cc(N3CCN(C)CC3)nc(Sc3ccc(NC(=O)C4CC4)cc3)n2)n[nH]1 [tozasertib]
# Method in brief: as §1
# doramapimod = compound: Cc1ccc(-n2nc(C(C)(C)C)cc2NC(=O)Nc2ccc(OCCN3CCOCC3)c3ccccc23)cc1 [doramapimod]
# Method in brief: as §1
# bafetinib = compound: Cc1ccc(NC(=O)c2ccc(CN3CC[C@H](N(C)C)C3)c(C(F)(F)F)c2)cc1Nc1nccc(-c2cncnc2)n1 [bafetinib]
# Method in brief: as §1
# [2] = compound: Cc1cccc(CC(=O)N2CCc3c2ccc(-c2cn(C)c4ncnc(N)c24)c3F)n1
# Method in brief: as §1
Target,log2 fold change (lapatinib),log2 fold change (pictilisib),log2 fold change (crizotinib),log2 fold change [1],log2 fold change (duvelisib),log2 fold change (gandotinib),log2 fold change (tozasertib),log2 fold change (doramapimod),log2 fold change (bafetinib),log2 fold change [2]
ZNF622 (UniProt Q969S3),inactive: -0.005,inactive: 0.025,inactive: -0.011,inactive: -0.048,inactive: 0.005,inactive: -0.013,inactive: 0.009,inactive: -0.011,inactive: -0.078,inactive: 0.038
ZZEF1 (UniProt O43149),inactive: -0.023,inactive: -0.024,inactive: -0.092,inactive: -0.113,inactive: 0.028,inactive: 0.038,inactive: -0.011,inactive: 0.029,inactive: -0.083,inactive: 0.123
ZWINT (UniProt O95229),inactive: 0.004,inactive: -0.031,inactive: -0.019,inactive: -0.055,inactive: 0.02,inactive: 0.052,inactive: -0.027,inactive: -0.019,inactive: -0.038,inactive: -0.023
ZMYND8 isoform 19 (UniProt Q9ULU4),inactive: -0.017,inactive: -0.044,inactive: -0.109,inactive: -0.105,inactive: -0.006,inactive: 0.092,inactive: 0.035,inactive: 0.001,inactive: -0.028,inactive: 0.049
ZNF638 (UniProt Q14966),inactive: -0.007,inactive: -0.012,inactive: -0.003,inactive: -0.005,inactive: -0.018,inactive: -0.065,inactive: 0.046,inactive: 0.028,inactive: -0.011,inactive: 0.001
ZNF512B (UniProt Q96KM6),inactive: -0.075,–,–,–,–,–,–,–,–,–
ZNF318 (UniProt Q5VUA4),inactive: 0.031,inactive: 0.059,inactive: 0.023,inactive: -0.008,inactive: 0.046,inactive: -0.021,inactive: -0.019,inactive: -0.01,inactive: -0.086,inactive: 0.112
ZNF316 (UniProt A6NFI3),inactive: -0.167,inactive: -0.052,inactive: -0.074,inactive: -0.215,inactive: 0.082,inactive: 0.073,inactive: -0.037,inactive: -0.016,inactive: 0.098,inactive: 0.184
ZNRD2 (UniProt O60232),inactive: 0.084,inactive: -0.055,inactive: 0.021,inactive: -0.025,inactive: 0.081,inactive: -0.028,inactive: 0.059,inactive: 0.04,inactive: -0.051,inactive: 0.009
ZNF131 (UniProt P52739),inactive: 0.122,inactive: 0.042,inactive: 0,inactive: -0.018,inactive: 0.015,inactive: -0.045,inactive: -0.033,inactive: -0.046,inactive: 0.014,inactive: 0.045
ZNF511 (UniProt Q8NB15),inactive: 0.063,inactive: 0.081,inactive: 0.03,inactive: -0.205,inactive: 0.01,inactive: 0.047,inactive: -0.015,inactive: 0.03,inactive: -0.033,inactive: 0.029
ZNF207 isoform 2 (UniProt O43670),inactive: -0.001,inactive: 0.029,inactive: -0.188,–,inactive: 0.088,–,inactive: -0.163,inactive: 0.073,inactive: 0.049,–
ZNF691 (UniProt Q5VV52),inactive: -0.035,inactive: -0.071,inactive: 0.089,inactive: -0.115,inactive: 0,inactive: 0.073,inactive: 0.186,inactive: -0.148,inactive: 0.072,inactive: 0.016
ZNF407 (UniProt Q9C0G0),inactive: 0,inactive: -0.167,–,inactive: -0.096,inactive: 0.082,inactive: 0.044,inactive: 0.031,–,inactive: -0.243,inactive: 0.131
ZNF830 (UniProt Q96NB3),inactive: 0.001,inactive: 0.009,inactive: 0.013,inactive: -0.042,inactive: 0.001,inactive: 0.051,inactive: -0.041,inactive: 0.017,inactive: -0.021,inactive: -0.086
ZMPSTE24 (UniProt O75844),inactive: 0.023,inactive: 0.004,inactive: -0.045,inactive: -0.239,inactive: 0.028,inactive: 0.199,inactive: 0.004,inactive: 0.01,inactive: -0.026,inactive: 0.113
ZNF512 (UniProt Q96ME7),inactive: -0.05,inactive: 0.037,inactive: -0.051,inactive: 0.039,inactive: -0.039,inactive: 0.066,inactive: -0.01,inactive: -0.015,inactive: -0.025,inactive: 0
ZNF92 (UniProt Q03936),inactive: -0.102,inactive: 0.04,inactive: 0.051,inactive: -0.087,inactive: 0.068,inactive: -0.121,–,inactive: -0.03,inactive: 0.04,inactive: 0.022
ZNFX1 (UniProt Q9P2E3),inactive: 0.088,inactive: 0.039,inactive: -0.052,inactive: 0.013,inactive: -0.048,inactive: -0.104,inactive: 0.067,inactive: -0.047,inactive: 0.053,inactive: 0.224
"ZNF654, A0A1B0GWA0",inactive: -0.039,inactive: -0.047,inactive: -0.053,inactive: -0.124,–,inactive: -0.075,–,inactive: 0.127,inactive: -0.042,inactive: 0.102
ZNF574 isoform 2 (UniProt Q6ZN55),inactive: 0.045,inactive: -0.052,inactive: -0.013,inactive: -0.037,–,inactive: 0,inactive: 0.109,inactive: -0.084,inactive: 0.068,inactive: 0.059
ZHX1 (UniProt Q9UKY1),inactive: 0.014,inactive: 0.003,inactive: 0.018,active: -0.57,inactive: 0.038,active: 0.475,inactive: -0.09,inactive: -0.013,inactive: -0.08,active: 0.431
ZYX (UniProt Q15942),inactive: 0.031,inactive: -0.038,inactive: 0.008,inactive: -0.025,inactive: 0.027,inactive: 0.049,inactive: -0.039,inactive: 0.007,inactive: 0.047,inactive: -0.016
ZKSCAN3 (UniProt Q9BRR0),inactive: -0.112,inactive: 0.018,inactive: -0.023,inactive: 0.084,inactive: 0.019,inactive: -0.068,inactive: 0.053,inactive: 0.016,inactive: -0.119,inactive: -0.092
ZMIZ2 (UniProt Q8NF64),inactive: -0.099,inactive: -0.014,inactive: 0,inactive: -0.083,inactive: 0.005,inactive: -0.058,inactive: 0.063,inactive: 0.064,inactive: 0.025,inactive: 0.05
ZPR1 (UniProt O75312),inactive: -0.007,inactive: 0.001,inactive: 0.04,inactive: -0.008,inactive: 0.013,inactive: -0.003,inactive: 0.021,inactive: 0.002,inactive: 0.021,inactive: -0.015
ZNF217 (UniProt O75362),inactive: -0.02,inactive: 0.059,inactive: -0.025,inactive: -0.045,inactive: -0.011,inactive: -0.009,inactive: 0.044,inactive: 0.004,inactive: 0.037,inactive: 0.052
ZNHIT3 (UniProt Q15649),inactive: 0.044,inactive: 0.075,inactive: -0.022,inactive: 0.074,inactive: -0.027,inactive: 0,inactive: -0.134,inactive: 0.051,inactive: -0.147,inactive: 0.049
ZNF74 isoform 5 (UniProt Q16587),inactive: -0.1,inactive: 0.012,–,inactive: 0.11,inactive: 0.02,inactive: -0.032,inactive: -0.29,–,inactive: 0.3,inactive: -0.05
ZNF768 (UniProt Q9H5H4),inactive: -0.029,inactive: 0.016,inactive: 0.002,inactive: -0.002,inactive: 0.022,inactive: 0.067,inactive: -0.032,inactive: 0.143,inactive: -0.065,inactive: -0.024

# 2 records drawn at random from the list so far, as already listed:
Target,log2 fold change (lapatinib),log2 fold change (pictilisib),log2 fold change (crizotinib),log2 fold change [1],log2 fold change (duvelisib),log2 fold change (gandotinib),log2 fold change (tozasertib),log2 fold change (doramapimod),log2 fold change (bafetinib),log2 fold change [2]
ZNF207 isoform 2 (UniProt O43670),inactive: -0.001,inactive: 0.029,inactive: -0.188,–,inactive: 0.088,–,inactive: -0.163,inactive: 0.073,inactive: 0.049,–
ZNF316 (UniProt A6NFI3),inactive: -0.167,inactive: -0.052,inactive: -0.074,inactive: -0.215,inactive: 0.082,inactive: 0.073,inactive: -0.037,inactive: -0.016,inactive: 0.098,inactive: 0.184
